No constants are given. Whether binding was seen depends on the method and setting. In cells and extracts the contact can be indirect. A yes stands for co-enrichment or nearness to the bait. Other partners may have been found.
T1: MRE11^K464R protein (human) (UniProt P49959)
T1 sequence: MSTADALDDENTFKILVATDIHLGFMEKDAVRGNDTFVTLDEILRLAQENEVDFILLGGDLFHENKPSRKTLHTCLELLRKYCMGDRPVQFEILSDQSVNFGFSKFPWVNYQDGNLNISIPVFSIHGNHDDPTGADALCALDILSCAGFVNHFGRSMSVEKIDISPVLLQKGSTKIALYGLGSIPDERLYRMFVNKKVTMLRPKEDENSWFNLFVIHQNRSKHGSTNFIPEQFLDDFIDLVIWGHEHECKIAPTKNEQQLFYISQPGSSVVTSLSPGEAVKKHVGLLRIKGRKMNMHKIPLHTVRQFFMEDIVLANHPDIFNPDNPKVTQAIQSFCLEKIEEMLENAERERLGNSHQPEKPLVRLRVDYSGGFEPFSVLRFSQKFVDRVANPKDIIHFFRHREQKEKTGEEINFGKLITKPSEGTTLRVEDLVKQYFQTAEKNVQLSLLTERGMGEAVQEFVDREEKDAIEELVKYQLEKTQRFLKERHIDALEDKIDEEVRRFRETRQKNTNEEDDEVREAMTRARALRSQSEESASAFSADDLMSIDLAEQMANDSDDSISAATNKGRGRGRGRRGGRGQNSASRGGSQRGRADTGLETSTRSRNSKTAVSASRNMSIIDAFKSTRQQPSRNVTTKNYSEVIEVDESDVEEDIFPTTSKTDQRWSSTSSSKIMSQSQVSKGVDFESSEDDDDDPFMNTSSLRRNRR

Chains of the proteins cited; added tags and fusions are not shown.
UniProt P09874: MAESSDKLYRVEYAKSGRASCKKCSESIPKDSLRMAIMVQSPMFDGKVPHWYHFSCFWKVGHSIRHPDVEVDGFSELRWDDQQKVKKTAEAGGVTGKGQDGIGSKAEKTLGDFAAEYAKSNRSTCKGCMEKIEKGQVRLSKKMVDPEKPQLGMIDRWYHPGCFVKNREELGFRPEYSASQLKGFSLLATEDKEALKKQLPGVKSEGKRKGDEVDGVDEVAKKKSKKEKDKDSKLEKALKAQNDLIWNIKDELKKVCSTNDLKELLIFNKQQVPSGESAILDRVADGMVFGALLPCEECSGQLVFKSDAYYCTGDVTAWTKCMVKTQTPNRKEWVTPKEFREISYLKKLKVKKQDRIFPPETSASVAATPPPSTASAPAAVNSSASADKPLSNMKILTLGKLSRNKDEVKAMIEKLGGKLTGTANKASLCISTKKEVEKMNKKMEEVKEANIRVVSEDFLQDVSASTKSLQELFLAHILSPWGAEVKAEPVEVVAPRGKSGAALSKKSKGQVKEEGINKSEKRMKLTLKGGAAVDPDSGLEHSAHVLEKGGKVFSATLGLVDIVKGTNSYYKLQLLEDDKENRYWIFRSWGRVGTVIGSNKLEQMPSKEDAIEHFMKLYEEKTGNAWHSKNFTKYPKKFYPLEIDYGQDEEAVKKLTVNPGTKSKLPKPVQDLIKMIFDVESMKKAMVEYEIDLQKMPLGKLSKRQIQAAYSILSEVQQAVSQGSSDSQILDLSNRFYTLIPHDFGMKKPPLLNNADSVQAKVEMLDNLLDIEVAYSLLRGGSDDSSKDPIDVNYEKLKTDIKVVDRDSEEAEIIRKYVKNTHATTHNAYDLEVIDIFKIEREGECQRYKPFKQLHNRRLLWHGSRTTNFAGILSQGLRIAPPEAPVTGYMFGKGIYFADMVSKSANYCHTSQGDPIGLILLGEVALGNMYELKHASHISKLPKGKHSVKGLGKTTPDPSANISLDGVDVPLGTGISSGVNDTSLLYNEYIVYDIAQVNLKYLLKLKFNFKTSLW


Target: T1, MRE11^K464R protein (human)
Experiment: affinity purification with mass spectrometry; MRE11 and its interacting proteins extracted from cells with an IP kit (Absin abs955) and analysed by mass spectrometry; proteins higher (Fold Change > 2) in the K464R group than in the WT group taken as interactors, then filtered with the STRING database

Row | binding | Molecule
1 | binds | PARP1 (from UniProt P09874 1-1014)
2 | binds | DDX1 (protein, UniProt Q92499 1-740) MAAFSEMGVMPEIAQAVEEMDWLLPTDIQAESIPLILGGGDVLMAAETGSGKTGAFSIPVIQIVYETLKDQQEGKKGKTTIKTGASVLNKWQMNPYDRGSAFAIGSDGLCCQSREVKEWHGCRATKGLMKGKHYYEVSCHDQGLCRVGWSTMQASLDLGTDKFGFGFGGTGKKSHNKQFDNYGEEFTMHDTIGCYLDIDKGHVKFSKNGKDLGLAFEIPPHMKNQALFPACVLKNAELKFNFGEEEFKFPPKDGFVALSKAPDGYIVKSQHSGNAQVTQTKFLPNAPKALIVEPSRELAEQTLNNIKQFKKYIDNPKLRELLIIGGVAARDQLSVLENGVDIVVGTPGRLDDLVSTGKLNLSQVRFLVLDEADGLLSQGYSDFINRMHNQIPQVTSDGKRLQVIVCSATLHSFDVKKLSEKIMHFPTWVDLKGEDSVPDTVHHVVVPVNPKTDRLWERLGKSHIRTDDVHAKDNTRPGANSPEMWSEAIKILKGEYAVRAIKEHKMDQAIIFCRTKIDCDNLEQYFIQQGGGPDKKGHQFSCVCLHGDRKPHERKQNLERFKKGDVRFLICTDVAARGIDIHGVPYVINVTLPDEKQNYVHRIGRVGRAERMGLAISLVATEKEKVWYHVCSSRGKGCYNTRLKEDGGCTIWYNEMQLLSEIEEHLNCTISQVEPDIKVPVDEFDGKVTYGQKRAAGGGSYKGHVDILAPTVQELAALEKEAQTSFLHLGYLPNQLFRTF

Reference: publication PMC10537967
